Experimental data as given in patent US6800750.

Sequences of proteins named here, by UniProt entry; tags and fusion partners are left off. Residues count along the entry.
UniProt P08047, 2-785: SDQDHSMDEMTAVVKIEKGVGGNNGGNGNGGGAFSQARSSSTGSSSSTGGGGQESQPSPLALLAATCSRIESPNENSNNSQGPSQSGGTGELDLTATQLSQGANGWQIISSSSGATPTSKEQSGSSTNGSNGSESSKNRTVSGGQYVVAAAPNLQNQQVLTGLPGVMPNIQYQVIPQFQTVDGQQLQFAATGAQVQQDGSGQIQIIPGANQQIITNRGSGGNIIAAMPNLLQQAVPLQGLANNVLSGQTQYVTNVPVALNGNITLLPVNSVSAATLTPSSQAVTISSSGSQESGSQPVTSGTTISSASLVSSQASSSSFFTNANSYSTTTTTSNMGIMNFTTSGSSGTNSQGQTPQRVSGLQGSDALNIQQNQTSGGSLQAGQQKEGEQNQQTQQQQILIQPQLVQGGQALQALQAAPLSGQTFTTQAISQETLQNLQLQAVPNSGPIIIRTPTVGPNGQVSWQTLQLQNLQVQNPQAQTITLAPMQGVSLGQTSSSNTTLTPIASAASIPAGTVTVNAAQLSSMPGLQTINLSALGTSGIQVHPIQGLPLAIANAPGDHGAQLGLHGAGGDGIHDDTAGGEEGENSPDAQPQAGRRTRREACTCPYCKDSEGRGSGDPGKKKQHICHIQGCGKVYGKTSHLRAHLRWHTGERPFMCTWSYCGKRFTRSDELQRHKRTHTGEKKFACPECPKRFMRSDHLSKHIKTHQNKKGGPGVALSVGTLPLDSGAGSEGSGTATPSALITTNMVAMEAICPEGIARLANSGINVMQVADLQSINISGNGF

Columns and labels:
[1] = target: T1, Elk-1 (UniProt P19419); experiment: competition with a labelled probe; conditions: protein in an extract, protein details: endogenous, nuclear extract
T1 sequence (looked up, limits assumed): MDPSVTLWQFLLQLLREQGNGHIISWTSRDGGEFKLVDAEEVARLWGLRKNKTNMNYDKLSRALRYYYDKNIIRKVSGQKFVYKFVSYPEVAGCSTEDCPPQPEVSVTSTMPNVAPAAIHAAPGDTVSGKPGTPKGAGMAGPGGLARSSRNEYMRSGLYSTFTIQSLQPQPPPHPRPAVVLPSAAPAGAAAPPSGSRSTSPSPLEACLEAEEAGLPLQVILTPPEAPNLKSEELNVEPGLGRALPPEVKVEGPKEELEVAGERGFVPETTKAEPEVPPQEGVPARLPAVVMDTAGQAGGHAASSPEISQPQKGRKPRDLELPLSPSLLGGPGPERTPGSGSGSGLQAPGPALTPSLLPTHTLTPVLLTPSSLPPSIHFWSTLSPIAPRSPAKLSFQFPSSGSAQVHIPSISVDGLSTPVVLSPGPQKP

[2] = target: Sp1 (UniProt P08047); experiment: competition with a labelled probe; conditions: protein in an extract, protein details: endogenous, nuclear extract
[3] = target: T2, SRF (UniProt P11831); experiment: competition with a labelled probe; conditions: protein in an extract, protein details: endogenous, nuclear extract
T2 sequence (looked up, limits assumed): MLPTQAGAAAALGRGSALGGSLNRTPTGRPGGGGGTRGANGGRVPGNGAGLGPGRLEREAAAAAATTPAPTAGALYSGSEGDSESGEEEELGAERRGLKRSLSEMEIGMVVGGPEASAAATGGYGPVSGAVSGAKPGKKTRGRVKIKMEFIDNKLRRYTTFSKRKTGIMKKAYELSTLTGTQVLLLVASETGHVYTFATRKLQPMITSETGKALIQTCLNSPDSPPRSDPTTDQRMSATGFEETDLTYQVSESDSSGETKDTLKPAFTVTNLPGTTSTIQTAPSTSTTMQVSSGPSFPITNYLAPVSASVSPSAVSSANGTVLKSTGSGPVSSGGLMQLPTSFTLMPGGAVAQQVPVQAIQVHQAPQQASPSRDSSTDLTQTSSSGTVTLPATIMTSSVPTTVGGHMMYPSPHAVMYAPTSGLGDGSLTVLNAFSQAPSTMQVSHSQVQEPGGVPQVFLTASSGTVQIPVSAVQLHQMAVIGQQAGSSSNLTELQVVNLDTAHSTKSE

[4] = target: Sp1 (UniProt P08047); experiment: EMSA; conditions: Complex II, supershifted by anti-Sp1 and decreased by blocking antibody 1C6; protein in an extract; protein details: endogenous, nuclear extract
[5] = target: T2, SRF; experiment: EMSA; conditions: Complex I, supershifted by anti-SRF; complex with Elk-1; protein in an extract; protein details: endogenous, nuclear extract
[6] = unlabeled triple-site mutant did not inhibit Complex I, variant of WT Mcl-1 oligonucleotide (-135 to -92)
[7] = competitor did not inhibit Complex I

CAACCCTCCTTAAGCTGCTGACCCTTTCCCCTTCGGCTGGAATA (double strand) [delta Mcl-1 oligonucleotide]
binding result [1, 6]: no binding
binding result ([2]; unlabeled triple-site mutant did not inhibit Complex II, variant of WT Mcl-1 oligonucleotide (-135 to -92)): no binding
binding result [3, 6]: no binding

CAACCCTCCGGAAGCTGCCGCCCCTTTCCCCTTTTATGGGAATA (double strand) [WT Mcl-1 oligonucleotide (-135 to -92)]
binding result [4]: binds
binding result [5]: binds

CTTACACAGGATGTCCATATTAGGACATCT (double strand) [c-Fos SRE oligonucleotide]
binding result ([2]; competitor did not inhibit Complex II): no binding
binding result ([3]; unlabeled competitor inhibited Complex I (SRF/Elk-1)): binds

ATTCGATCGGGGCGGGGCGAGC (double strand) [Sp1 consensus oligonucleotide]
binding result [1, 7]: no binding
binding result [3, 7]: no binding

Results from cells or extracts need not show a direct contact. For part of these data: No signal at the amounts used counts as a negative. For part of these data: Tags and fusion partners may be left off the protein sequences shown.
